# Laboratory results from PubChem BioAssay AID266 (DTP/NCI, 2004).
# The list shows only some results of the screen, not a fair sample: it is rich in T/C values a quarter to a half above the control, in often repeated tests (any T/C) and in doses without a T/C. Other doses and runs of a compound stand elsewhere. T/C is the treated group as % of the vehicle group. Schedules are NCI's codes, read here as Q, the interval in days (D) or hours (H), X, the number of doses. Some T/C values are followed by the survivors on the day toxicity was checked, most often the fifth; without a count, all were alive then. Some entries give survivors of the animals treated and no T/C: the source holds a T/C of zero for them, seemingly a mark for toxic or unscored doses. Survivors were counted at the toxicity check, usually on the fifth day, unless a day is given; later deaths do not show.
# Test system: Nude mice, LX-1 lung xenograft intrarenal, tumor weight T/C
# Assay: NCI In Vivo Anticancer Drug Screen. Data for tumor model Human Lung LX-1 Xenograft (intrarenal inoculation) in NU/NU BALB/C (nude) mice
# Details: T/C endpoint: mean tumor weight change, higher T/C = larger tumour; for T/C: evaluated on day 11
# Procedure: The antitumor activity of compounds was measured in mice bearing transplantable tumors. Survival or tumor size were measured and the results are expressed as the measurement made in the treated group (T) divided by the measurement made in the vehicle treated control group (C). The tumor model used in this assay is Human Lung LX-1 Xenograft (intrarenal inoculation) in NU/NU BALB/C (nude) mice
# [1] = dose: 50.0 mg/kg/injection, schedule: Q01DX010 (sc), vehicle: saline with Tween-80
# [2] = dose: 400.0 mg/kg/injection, schedule: Q01DX010 (sc), vehicle: saline with Tween-80
# [3] = dose: 8.0 mg/kg/injection, schedule: Q01DX010 (sc), vehicle: saline
# [4] = dose: 16.0 mg/kg/injection, schedule: Q01DX010 (sc), vehicle: saline
# [5] = dose: 10.0 mg/kg/injection, schedule: Q04DX003 (sc), vehicle: saline
# [6] = dose: 100.0 mg/kg/injection, schedule: Q01DX010 (sc), vehicle: saline with Tween-80
# [7] = dose: 800.0 mg/kg/injection, schedule: Q04DX003 (sc), vehicle: saline
smiles,measurement,setting,value
CC1(CO)C(O)CCC2(C)C1CCC1CC3CC12CCC3(O)CO (centres undefined),T/C,[1],146 % of control
same,survivor count,[2],0 of 3 on day 11
O=C1N=C(Oc2ccccc2)SC1=O,survivor count,"dose: 800.0 mg/kg/injection, schedule: Q04DX003 (sc), vehicle: saline with Tween-80",2 of 6 on day 11
C1CC[N-]CC1.[Cl][Pt+2][Cl].[NH-]C1CC1,survivor count,"dose: 200.0 mg/kg/injection, schedule: Q04DX003 (sc), vehicle: water",0 of 4 on day 11
CN(CO)c1nc(N(C)CO)nc(N(C)CO)n1,T/C,"dose: 12.5 mg/kg/injection, schedule: Q01DX010 (sc), vehicle: saline",131 % of control [2 of 2 alive on day 11]
same,survivor count,"dose: 200.0 mg/kg/injection, schedule: Q01DX010 (sc), vehicle: saline",0 of 2 on day 11
S=P(N1CC1)(N1CC1)N1CC1,survivor count,[3],0 of 3 on day 11
same,survivor count,[4],0 of 3 on day 11
same,survivor count,"dose: 32.0 mg/kg/injection, schedule: Q01DX010 (sc), vehicle: saline",0 of 2 on day 11
C/C=C(\C)c1cc(=O)c2c(C)cc3c(c2o1)C(=O)c1c(O)c(C2CC(C)(N(C)C)C(OC(C)=O)C(C)O2)cc(C2CC(N(C)C)C(O)C(C)O2)c1C3=O (centres undefined),survivor count,[5],3 of 5 on day 11
same,survivor count,"dose: 20.0 mg/kg/injection, schedule: Q04DX003 (sc), vehicle: saline",2 of 6 on day 11
same,survivor count,"dose: 40.0 mg/kg/injection, schedule: Q04DX003 (sc), vehicle: saline",0 of 6 on day 11
same,survivor count,"dose: 80.0 mg/kg/injection, schedule: Q04DX003 (sc), vehicle: saline",0 of 6 on day 11
CC(C)CCCCCCCCCCCCC(=O)NCC(=O)NC1C(O)C(O)C(Nc2ncnc3nc[nH]c23)OC1C(O)CO (centres undefined),survivor count,"dose: 1.6 mg/kg/injection, schedule: Q01DX010 (sc), vehicle: saline",1 of 3 on day 11
same,survivor count,"dose: 3.2 mg/kg/injection, schedule: Q01DX010 (sc), vehicle: saline",0 of 3 on day 11
CCN(CC)Cc1cc2[nH]c3c4ccc(Cl)cc4ncc3c2cc1OC,survivor count,"dose: 600.0 mg/kg/injection, schedule: Q04DX003 (sc), vehicle: saline with Tween-80",0 of 6 on day 11
COc1ccc(S(=O)(=O)N/N=C/C(=O)O)cc1,survivor count,[2],0 of 3 on day 11
CC1CCC(NC(=O)N(CCCl)N=O)CC1 (centres undefined),survivor count,"dose: 12.5 mg/kg/injection, schedule: Q01DX010 (sc), vehicle: Klucel (hydroxypropylcellulose) (HPC)",0 of 3 on day 11
same,survivor count,"dose: 25.0 mg/kg/injection, schedule: Q01DX010 (sc), vehicle: Klucel (hydroxypropylcellulose) (HPC)",0 of 3 on day 11
CNC(=O)O/N=C(\CN=[N+]=[N-])C(C)(C)C,survivor count,"dose: 2.5 mg/kg/injection, schedule: Q04DX003 (sc), vehicle: saline",1 of 6 on day 11
same,survivor count,"dose: 5.0 mg/kg/injection, schedule: Q04DX003 (sc), vehicle: saline",0 of 6 on day 11
same,survivor count,[5],0 of 6 on day 11
CCOC(C)C(/C=N/NC(N)=S)=NNC(N)=S (centres undefined),T/C,[6],130 % of control
NNC(=S)N/N=C/c1ccccn1,survivor count,"dose: 120.0 mg/kg/injection, schedule: Q04DX003 (sc), vehicle: saline with Tween-80",0 of 6 on day 11
N[C@H](C(=O)O)[C@@H]1CC(Cl)=NO1,T/C,"dose: 1.0 mg/kg/injection, schedule: Q01DX010 (sc), vehicle: saline",128 % of control [2 of 2 alive on day 11]
same,survivor count,[3],1 of 2 on day 11
same,survivor count,[4],1 of 2 on day 11
same,survivor count,"dose: 64.0 mg/kg/injection, schedule: Q02DX005 (sc), vehicle: saline",1 of 2 on day 11
CCC(C(=O)O)C(=O)O.[NH-]CC1CCCC[N-]1.[Pt+2],survivor count,[7],3 of 6 on day 11
CC(=O)OC1C(O)C(C)OC(OC2C(OC(=O)C3CCC4C(C3)OC3(CC(OC(=O)/C=C/c5ccccc5)C(C)CO3)C43CO3)OC(C)C(O)C2OC(C)=O)C1O (centres undefined),survivor count,"dose: 150.0 mg/kg/injection, schedule: Q04DX003 (sc), vehicle: distilled water + Tween-80",3 of 6 on day 11
same,survivor count,"dose: 300.0 mg/kg/injection, schedule: Q04DX003 (sc), vehicle: distilled water + Tween-80",0 of 6 on day 11
C[C@@]1(CO)[C@H](O)CC[C@@]2(C)[C@H]1CC[C@H]1C[C@@H]3C[C@@]12CC[C@@]3(O)COC(=O)CN,survivor count,"dose: 400.0 mg/kg/injection, schedule: Q01DX010 (sc), vehicle: saline + alcohol",1 of 6 on day 11
same,survivor count,"dose: 800.0 mg/kg/injection, schedule: Q01DX010 (sc), vehicle: saline + alcohol",0 of 6 on day 11
CCCCCn1c(C)cc(/C=C\c2ccc3cc(C)ccc3[n+]2C)c1C,T/C,"dose: 0.5 mg/kg/injection, schedule: Q01DX010 (sc), vehicle: Klucel (hydroxypropylcellulose) (HPC)",132 % of control
Oc1c(Cl)cc(Cl)cc1C=NCCSc1ccc(Cl)cc1,T/C,"dose: 150.0 mg/kg/injection, schedule: Q04DX003 (ip), vehicle: Klucel (hydroxypropylcellulose) (HPC)",145 % of control
same,survivor count,"dose: 1200.0 mg/kg/injection, schedule: Q04DX003 (ip), vehicle: Klucel (hydroxypropylcellulose) (HPC)",0 of 6 on day 11
CC[C@@]1(O)C[C@H](OC2CC(N(C)C)C(OC3CC(O)C(OC4CCC(=O)C(C)O4)C(C)O3)C(C)O2)c2c(cc3c(c2O)C(=O)c2c(O)cccc2C3=O)[C@H]1C(=O)OC (some centres undefined),T/C,"dose: 0.5 mg/kg/injection, schedule: Q01DX010 (sc), vehicle: water",147 % of control
same,survivor count,"dose: 4.0 mg/kg/injection, schedule: Q01DX010 (sc), vehicle: water",0 of 3 on day 11
same,survivor count,"dose: 13.3 mg/kg/injection, schedule: Q04DX003 (sc), vehicle: water",0 of 3 on day 11
CN(C)c1ccc2c(NCCCCCCNc3ccnc4cc(N(C)C)ccc34)ccnc2c1,survivor count,"dose: 300.0 mg/kg/injection, schedule: Q04DX003 (sc), vehicle: distilled water + Tween-80 + alcohol",0 of 6 on day 11
Nc1ccc(S(=O)(=O)Nc2cnc3c(Cl)cccc3n2)cc1,survivor count,"dose: 1200.0 mg/kg/injection, schedule: Q04DX003 (ip), vehicle: DMSO",0 of 6 on day 11
CC[C@](C)(O)C(=O)O[C@H]1C(=O)O[C@@H]2C[C@H]3C(C)=CC(=O)[C@@H](O)[C@]3(C)[C@H]3[C@@]4(O)OC[C@]32[C@@H]1[C@@H](C)[C@H]4O,T/C,"dose: 0.25 mg/kg/injection, schedule: Q01DX010 (sc), vehicle: Klucel (hydroxypropylcellulose) (HPC)",141 % of control
same,survivor count,"dose: 2.0 mg/kg/injection, schedule: Q01DX010 (sc), vehicle: Klucel (hydroxypropylcellulose) (HPC)",1 of 3 on day 11
Nc1ccn([C@@H](C=O)O[C@@H](C=O)CO)c(=O)n1,T/C,"dose: 100.0 mg/kg/injection, schedule: Q04DX003 (sc), vehicle: saline",126 % of control
same,survivor count,"dose: 400.0 mg/kg/injection, schedule: Q04DX003 (sc), vehicle: saline",3 of 6 on day 11
same,survivor count,[7],0 of 6 on day 11
OCC(O)C(O)C(O)C(O)CO (centres undefined),T/C,"dose: 150.0 mg/kg/injection, schedule: Q04DX003 (ip), vehicle: saline",139 % of control
same,T/C,"dose: 300.0 mg/kg/injection, schedule: Q04DX003 (ip), vehicle: saline",134 % of control
Cc1cc(NCCCCCCCNc2cc(C)nc3cc(N)ccc23)c2ccc(N)cc2n1,survivor count,[1],0 of 2 on day 11
same,survivor count,[6],0 of 3 on day 11
CC1=C2CC(C)(C)/C=C\C(=O)/C(C)=C\C3=C[C@H](C)C[C@]3(O2)C1=O,T/C,"dose: 48.0 mg/kg/injection, schedule: Q01DX010 (sc), vehicle: Klucel (hydroxypropylcellulose) (HPC)",141 % of control [2 of 3 alive on day 11]
same,survivor count,"dose: 100.0 mg/kg/injection, schedule: Q01DX010 (sc), vehicle: Klucel (hydroxypropylcellulose) (HPC)",1 of 3 on day 11
same,survivor count,"dose: 200.0 mg/kg/injection, schedule: Q01DX010 (sc), vehicle: Klucel (hydroxypropylcellulose) (HPC)",0 of 3 on day 11
same,survivor count,"dose: 400.0 mg/kg/injection, schedule: Q01DX010 (sc), vehicle: Klucel (hydroxypropylcellulose) (HPC)",0 of 3 on day 11
